Strings that start with PEPTIDE1 are HELM notation: dots part the residues, brackets hold end groups and non-standard residues.
Experiment: general procedure: Fmoc solid-phase peptide synthesis
Details: conjugation step

Substance	conjugation yield [%]
PEPTIDE1{[ac].[Ahx].[dE].[dE].[dE].[dE].[dE].[dE].[dE].[dE].[dE].[Ahx].P.A.A.N.V.G.[dR].[dR].[dR].[dR].[dR].[dR].[dR].[dR].[dR].[Ahx].[dK].[am]}|CHEM1{[NOTA-Bn-NHCS]}$PEPTIDE1,CHEM1,29:R3-1:R2$$$V2.0	65
PEPTIDE1{[ac].[Ahx].[dE].[dE].[dE].[dE].[Ahx].P.A.A.N.V.G.[dR].[dR].[dR].[dR].[dR].[Ahx].[dK].[am]}|CHEM1{[NOTA-Bn-NHCS]}$PEPTIDE1,CHEM1,20:R3-1:R2$$$V2.0	32

Reference: article PMC12693633 (Molecules, 2025)
